Assay results as given in the supplement of paper PMC12823440, “Inhibitors supercharge kinase turnover through native proteolytic circuits” (Nature, 2025).
Counter-ions that a name gives are not always drawn. This is one part of the list. Hit calls seldom repeat between salt and free forms of one compound.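 Kinases, fused to nanoluciferase, were expressed in K562 cells; luminescence was measured every 4 h from 2 to 18 h as percent of control (DMSO = 100%, positive control = 0%). A time point is decreased if signal falls significantly (2 sigma). Hits were called by the authors by a rule that is not shown; the count of time points alone does not decide it.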

By UniProt entry, the sequences of proteins in these tests, tags left out. Where a name states a change or a piece, a line headed by the entry shows the natural chain unless it says otherwise.
UniProt P50613: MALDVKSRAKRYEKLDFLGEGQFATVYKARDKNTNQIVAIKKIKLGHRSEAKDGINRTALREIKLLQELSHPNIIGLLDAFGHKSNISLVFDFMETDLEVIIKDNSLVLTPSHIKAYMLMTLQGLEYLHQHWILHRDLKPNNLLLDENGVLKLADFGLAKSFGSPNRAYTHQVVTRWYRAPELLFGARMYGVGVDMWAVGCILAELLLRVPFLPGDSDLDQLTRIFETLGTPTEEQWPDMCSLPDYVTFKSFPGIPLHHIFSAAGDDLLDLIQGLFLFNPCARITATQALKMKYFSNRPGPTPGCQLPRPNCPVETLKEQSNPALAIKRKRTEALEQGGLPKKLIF
UniProt P50750, whole entry: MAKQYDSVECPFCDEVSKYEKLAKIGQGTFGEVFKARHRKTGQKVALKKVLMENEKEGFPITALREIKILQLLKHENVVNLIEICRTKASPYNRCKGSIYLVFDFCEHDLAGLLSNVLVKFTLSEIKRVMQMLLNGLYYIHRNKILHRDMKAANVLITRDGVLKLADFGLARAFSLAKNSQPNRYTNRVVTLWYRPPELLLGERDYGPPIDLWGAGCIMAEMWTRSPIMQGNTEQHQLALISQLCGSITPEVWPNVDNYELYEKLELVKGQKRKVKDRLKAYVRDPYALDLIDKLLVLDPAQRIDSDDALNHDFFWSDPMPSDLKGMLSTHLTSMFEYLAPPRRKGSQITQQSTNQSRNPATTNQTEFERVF
UniProt O96017, whole entry: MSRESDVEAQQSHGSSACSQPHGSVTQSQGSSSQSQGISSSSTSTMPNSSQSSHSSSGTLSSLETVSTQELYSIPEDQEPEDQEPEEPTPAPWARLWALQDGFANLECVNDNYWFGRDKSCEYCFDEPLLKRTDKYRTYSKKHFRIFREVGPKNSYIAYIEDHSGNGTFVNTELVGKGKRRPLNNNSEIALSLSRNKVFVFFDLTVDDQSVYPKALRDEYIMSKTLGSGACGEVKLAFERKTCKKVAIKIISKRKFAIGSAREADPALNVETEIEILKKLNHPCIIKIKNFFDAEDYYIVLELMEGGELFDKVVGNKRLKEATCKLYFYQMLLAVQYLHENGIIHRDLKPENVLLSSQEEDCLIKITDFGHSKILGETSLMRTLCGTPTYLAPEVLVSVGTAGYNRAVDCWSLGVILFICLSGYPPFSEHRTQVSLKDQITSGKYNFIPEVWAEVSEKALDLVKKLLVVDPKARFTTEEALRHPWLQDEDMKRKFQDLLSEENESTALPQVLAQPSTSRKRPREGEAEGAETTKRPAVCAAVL
UniProt P07333, whole entry: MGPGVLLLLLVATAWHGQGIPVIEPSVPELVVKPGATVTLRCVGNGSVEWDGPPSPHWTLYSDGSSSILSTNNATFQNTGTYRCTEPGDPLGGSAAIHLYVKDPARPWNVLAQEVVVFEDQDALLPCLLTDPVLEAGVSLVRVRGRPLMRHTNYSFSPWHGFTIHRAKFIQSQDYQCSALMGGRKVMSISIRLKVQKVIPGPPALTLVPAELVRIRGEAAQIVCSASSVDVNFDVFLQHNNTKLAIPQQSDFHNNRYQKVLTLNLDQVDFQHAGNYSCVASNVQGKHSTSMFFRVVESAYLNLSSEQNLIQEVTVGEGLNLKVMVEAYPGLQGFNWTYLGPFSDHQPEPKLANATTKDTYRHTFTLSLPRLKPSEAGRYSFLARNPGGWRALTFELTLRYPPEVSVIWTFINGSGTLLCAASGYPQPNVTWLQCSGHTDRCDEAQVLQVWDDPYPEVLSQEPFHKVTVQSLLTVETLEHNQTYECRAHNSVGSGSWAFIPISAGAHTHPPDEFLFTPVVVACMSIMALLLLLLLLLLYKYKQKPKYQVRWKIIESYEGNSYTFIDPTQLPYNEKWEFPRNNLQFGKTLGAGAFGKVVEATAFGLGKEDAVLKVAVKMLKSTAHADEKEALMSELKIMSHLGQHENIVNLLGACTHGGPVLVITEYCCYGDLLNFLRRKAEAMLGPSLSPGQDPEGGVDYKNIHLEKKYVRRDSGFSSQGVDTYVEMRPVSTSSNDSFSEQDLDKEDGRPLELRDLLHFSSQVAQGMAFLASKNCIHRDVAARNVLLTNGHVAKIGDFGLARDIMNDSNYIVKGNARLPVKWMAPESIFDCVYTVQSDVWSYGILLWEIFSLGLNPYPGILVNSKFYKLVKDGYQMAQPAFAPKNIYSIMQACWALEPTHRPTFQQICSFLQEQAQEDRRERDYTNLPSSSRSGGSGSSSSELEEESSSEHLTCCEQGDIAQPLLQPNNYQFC
UniProt P41240: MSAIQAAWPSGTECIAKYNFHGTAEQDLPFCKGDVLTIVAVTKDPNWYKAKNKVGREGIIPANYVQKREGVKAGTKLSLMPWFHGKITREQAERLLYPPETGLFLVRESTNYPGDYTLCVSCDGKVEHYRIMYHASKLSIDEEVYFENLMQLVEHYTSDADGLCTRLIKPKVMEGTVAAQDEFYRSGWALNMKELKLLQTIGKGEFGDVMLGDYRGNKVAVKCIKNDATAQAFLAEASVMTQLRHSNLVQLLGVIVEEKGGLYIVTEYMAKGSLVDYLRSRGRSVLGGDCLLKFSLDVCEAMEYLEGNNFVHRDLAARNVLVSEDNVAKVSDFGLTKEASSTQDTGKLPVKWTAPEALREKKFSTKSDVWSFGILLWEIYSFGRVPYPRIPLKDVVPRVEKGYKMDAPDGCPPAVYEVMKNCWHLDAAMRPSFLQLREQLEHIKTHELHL
UniProt P48729: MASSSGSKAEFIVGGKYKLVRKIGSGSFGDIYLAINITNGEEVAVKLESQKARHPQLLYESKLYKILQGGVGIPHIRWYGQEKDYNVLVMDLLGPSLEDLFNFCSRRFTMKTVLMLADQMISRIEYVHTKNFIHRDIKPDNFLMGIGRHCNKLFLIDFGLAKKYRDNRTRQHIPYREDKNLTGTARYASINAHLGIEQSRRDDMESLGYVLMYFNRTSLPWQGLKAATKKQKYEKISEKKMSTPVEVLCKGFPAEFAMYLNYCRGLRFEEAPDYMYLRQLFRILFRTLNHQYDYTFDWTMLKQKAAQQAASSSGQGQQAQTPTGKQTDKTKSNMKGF
UniProt P48730: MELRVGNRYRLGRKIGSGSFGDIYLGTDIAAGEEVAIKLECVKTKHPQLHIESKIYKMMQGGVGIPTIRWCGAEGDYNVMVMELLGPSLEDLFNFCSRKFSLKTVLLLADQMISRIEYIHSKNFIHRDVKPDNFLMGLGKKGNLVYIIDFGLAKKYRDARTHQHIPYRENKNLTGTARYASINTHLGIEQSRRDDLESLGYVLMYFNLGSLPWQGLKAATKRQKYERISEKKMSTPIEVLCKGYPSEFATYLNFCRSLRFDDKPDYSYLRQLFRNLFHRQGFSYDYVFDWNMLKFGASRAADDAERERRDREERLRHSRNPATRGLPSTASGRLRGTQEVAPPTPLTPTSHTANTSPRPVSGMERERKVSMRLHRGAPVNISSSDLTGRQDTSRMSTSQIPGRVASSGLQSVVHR
UniProt Q08345: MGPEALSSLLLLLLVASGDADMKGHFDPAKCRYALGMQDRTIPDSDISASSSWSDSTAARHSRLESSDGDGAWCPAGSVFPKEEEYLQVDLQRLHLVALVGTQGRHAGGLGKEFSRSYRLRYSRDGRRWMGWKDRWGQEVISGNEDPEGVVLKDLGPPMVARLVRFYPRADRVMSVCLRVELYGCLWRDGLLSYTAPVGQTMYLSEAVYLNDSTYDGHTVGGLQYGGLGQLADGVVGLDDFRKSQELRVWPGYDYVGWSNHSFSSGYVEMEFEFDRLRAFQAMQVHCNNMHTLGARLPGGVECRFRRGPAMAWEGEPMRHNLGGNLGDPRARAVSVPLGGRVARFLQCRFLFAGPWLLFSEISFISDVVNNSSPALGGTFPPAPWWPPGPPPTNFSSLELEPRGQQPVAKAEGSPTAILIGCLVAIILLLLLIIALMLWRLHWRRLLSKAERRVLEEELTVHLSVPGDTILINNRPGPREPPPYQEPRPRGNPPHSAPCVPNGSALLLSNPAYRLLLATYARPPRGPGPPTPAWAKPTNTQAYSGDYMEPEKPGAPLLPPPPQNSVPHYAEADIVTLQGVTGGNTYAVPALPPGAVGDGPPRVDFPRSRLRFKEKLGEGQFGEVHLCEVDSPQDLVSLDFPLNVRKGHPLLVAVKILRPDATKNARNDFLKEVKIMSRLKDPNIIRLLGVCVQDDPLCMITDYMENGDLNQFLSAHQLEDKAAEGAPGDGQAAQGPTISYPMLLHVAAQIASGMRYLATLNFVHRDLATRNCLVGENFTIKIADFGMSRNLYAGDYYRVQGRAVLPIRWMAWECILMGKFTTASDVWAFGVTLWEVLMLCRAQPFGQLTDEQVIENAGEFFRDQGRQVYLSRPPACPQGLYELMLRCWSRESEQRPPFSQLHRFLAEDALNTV
UniProt Q9Y463, whole entry, looked up: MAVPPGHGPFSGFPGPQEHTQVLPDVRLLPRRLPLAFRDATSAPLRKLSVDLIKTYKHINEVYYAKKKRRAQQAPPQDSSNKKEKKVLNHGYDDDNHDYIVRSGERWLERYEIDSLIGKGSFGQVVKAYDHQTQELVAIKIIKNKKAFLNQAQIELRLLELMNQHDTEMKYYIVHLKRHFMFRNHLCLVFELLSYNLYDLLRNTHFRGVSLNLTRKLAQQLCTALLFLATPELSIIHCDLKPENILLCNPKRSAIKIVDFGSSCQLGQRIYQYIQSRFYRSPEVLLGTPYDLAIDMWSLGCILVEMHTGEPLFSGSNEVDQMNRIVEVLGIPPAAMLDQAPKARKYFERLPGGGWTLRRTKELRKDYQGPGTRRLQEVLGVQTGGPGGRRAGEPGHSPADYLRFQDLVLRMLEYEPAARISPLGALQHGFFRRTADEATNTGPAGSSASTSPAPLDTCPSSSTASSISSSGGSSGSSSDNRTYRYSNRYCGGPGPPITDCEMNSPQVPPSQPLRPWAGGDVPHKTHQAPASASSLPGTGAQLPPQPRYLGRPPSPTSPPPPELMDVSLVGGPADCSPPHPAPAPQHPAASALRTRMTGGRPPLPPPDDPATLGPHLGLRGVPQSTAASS
UniProt Q92630: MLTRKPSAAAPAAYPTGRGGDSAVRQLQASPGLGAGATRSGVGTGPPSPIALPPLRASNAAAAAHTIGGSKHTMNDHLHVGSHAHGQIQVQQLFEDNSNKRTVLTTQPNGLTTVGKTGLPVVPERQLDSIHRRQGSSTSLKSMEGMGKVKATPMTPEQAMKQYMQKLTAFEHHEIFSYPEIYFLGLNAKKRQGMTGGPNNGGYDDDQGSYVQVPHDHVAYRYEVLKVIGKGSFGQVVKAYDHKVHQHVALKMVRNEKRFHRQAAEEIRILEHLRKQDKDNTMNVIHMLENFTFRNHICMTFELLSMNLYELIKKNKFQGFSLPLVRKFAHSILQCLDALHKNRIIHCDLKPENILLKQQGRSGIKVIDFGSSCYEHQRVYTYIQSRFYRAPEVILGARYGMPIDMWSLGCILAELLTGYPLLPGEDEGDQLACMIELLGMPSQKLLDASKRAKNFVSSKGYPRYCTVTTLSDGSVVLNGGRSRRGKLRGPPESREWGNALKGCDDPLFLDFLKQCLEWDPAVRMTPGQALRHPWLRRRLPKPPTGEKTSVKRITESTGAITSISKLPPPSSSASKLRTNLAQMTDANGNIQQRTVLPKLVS

Key:
Test in all cases: kinase-Nluc reporter destabilization hit call (1 = scored as downregulated) (binary); higher = compound decreases kinase abundance
Settings in all cases: K562; 2-18 h
[1] = target: CDK7 (UniProt P50613)
[2] = target: CDK9 (UniProt P50750)
[3] = target: CHEK2 (UniProt O96017)
[4] = target: CSF1R (UniProt P07333)
[5] = target: CSK (UniProt P41240)
[6] = target: CSNK1A1 (UniProt P48729)
[7] = target: CSNK1D (UniProt P48730)
[8] = target: DDR1 (UniProt Q08345)
[9] = target: DYRK1B (UniProt Q9Y463)
[10] = target: DYRK2 (UniProt Q92630)

| SMILES | kinase-Nluc reporter destabilization hit call [1] | kinase-Nluc reporter destabilization hit call [2] | kinase-Nluc reporter destabilization hit call [3] | kinase-Nluc reporter destabilization hit call [4] | kinase-Nluc reporter destabilization hit call [5] | kinase-Nluc reporter destabilization hit call [6] | kinase-Nluc reporter destabilization hit call [7] | kinase-Nluc reporter destabilization hit call [8] | kinase-Nluc reporter destabilization hit call [9] | kinase-Nluc reporter destabilization hit call [10] |
| --- | --- | --- | --- | --- | --- | --- | --- | --- | --- | --- |
| N#Cc1cnc(Nc2cc(NC[C@H]3CNCCO3)c(C(F)(F)F)cn2)cn1 (10 µM) | inactive: 0 | inactive: 0 | inactive: 0 | inactive: 0 | inactive: 0 | inactive: 0 | inactive: 0 | inactive: 0 | inactive: 0 | inactive: 0 |
| Nc1ccc(Sc2nc3ccccc3s2)c(Cl)c1 [KRAS inhibitor-9] (10 µM) | inactive: 0 | inactive: 0 | inactive: 0 | inactive: 0 | inactive: 0 | inactive: 0 | inactive: 0 | inactive: 0 | inactive: 0 | inactive: 0 |
| CCOc1cc(N2CCC(O)CC2)ccc1Nc1ncc2c(n1)N(C1CCCC1)CCC(=O)N2C (2.5 µM) | inactive: 0 | inactive: 0 | inactive: 0 | inactive: 0 | inactive: 0 | inactive: 0 | inactive: 0 | inactive: 0 | inactive: 0 | inactive: 0 |
| CN(C)CCOc1cc(-c2cn[nH]c2)ccc1NC(=O)C1COc2ccccc2O1 (stereo not given) (10 µM) | inactive: 0 | inactive: 0 | inactive: 0 | inactive: 0 | inactive: 0 | inactive: 0 | inactive: 0 | inactive: 0 | inactive: 0 | inactive: 0 |
| O=C1NC(=O)C(Cc2c[nH]c3c(Cl)cccc23)N1 (stereo not given) [Necroptosis-IN-1] (10 µM) | inactive: 0 | inactive: 0 | inactive: 0 | inactive: 0 | inactive: 0 | inactive: 0 | inactive: 0 | inactive: 0 | inactive: 0 | inactive: 0 |
| Cc1n[nH]c2ncc(C(=O)N3CCC[C@H]3c3ccc(Cl)cc3)cc12 (10 µM) | inactive: 0 | inactive: 0 | inactive: 0 | inactive: 0 | inactive: 0 | inactive: 0 | inactive: 0 | inactive: 0 | inactive: 0 | inactive: 0 |
| O=C(Nc1ccc(F)cc1F)C(NC(=S)Nc1cc(C(F)(F)F)cc(C(F)(F)F)c1)c1ccccc1 (racemic) (2.5 µM) | inactive: 0 | inactive: 0 | inactive: 0 | inactive: 0 | inactive: 0 | inactive: 0 | inactive: 0 | inactive: 0 | inactive: 0 | inactive: 0 |
| O=C(O)c1c[nH]c2cc(Cl)c(-c3ccc(C4(O)CCC4)cc3)cc12 (10 µM) | inactive: 0 | inactive: 0 | inactive: 0 | inactive: 0 | inactive: 0 | inactive: 0 | inactive: 0 | inactive: 0 | inactive: 0 | inactive: 0 |
| COc1c(O)cc(O)c2c(=O)cc(-c3ccccc3)oc12 [Wogonin] (10 µM) | inactive: 0 | inactive: 0 | inactive: 0 | inactive: 0 | inactive: 0 | inactive: 0 | inactive: 0 | inactive: 0 | inactive: 0 | inactive: 0 |
| NC(=O)c1sc2c([N+](=O)[O-])cc(C(F)(F)F)cc2[n+]1[O-] [Cyclapolin 9] (10 µM) | inactive: 0 | inactive: 0 | inactive: 0 | inactive: 0 | inactive: 0 | inactive: 0 | inactive: 0 | inactive: 0 | inactive: 0 | inactive: 0 |
| Cc1nc2c(NCc3cccc(S(C)(=O)=O)c3)nccn2c1-c1ccc(O)c(F)c1 (10 µM) | inactive: 0 | inactive: 0 | inactive: 0 | inactive: 0 | inactive: 0 | inactive: 0 | inactive: 0 | inactive: 0 | inactive: 0 | inactive: 0 |
| CC(C)c1cc2c(c(O)c1O)[C@@]13CCCC(C)(C)[C@@H]1C[C@@H]2OC3=O [Carnosol] (2.5 µM) | inactive: 0 | inactive: 0 | inactive: 0 | inactive: 0 | inactive: 0 | inactive: 0 | inactive: 0 | inactive: 0 | inactive: 0 | inactive: 0 |
| COc1ccc(Br)c(C=O)c1O [6-Bromo-2-hydroxy-3-methoxybenzaldehyde] (10 µM) | inactive: 0 | inactive: 0 | inactive: 0 | inactive: 0 | inactive: 0 | inactive: 0 | inactive: 0 | inactive: 0 | inactive: 0 | inactive: 0 |
| CNCc1cc(Oc2ccc3c(ccn3C(=O)Nc3cc(C(F)(F)F)n(C)n3)c2)ncn1 [Acrizanib] (10 µM) | inactive: 0 | inactive: 0 | inactive: 0 | inactive: 0 | inactive: 0 | inactive: 0 | inactive: 0 | inactive: 0 | inactive: 0 | inactive: 0 |
| CC1(C)C=Cc2c(ccc(C(=O)/C=C/c3ccc(O)cc3)c2O)O1 [4-Hydroxylonchocarpin] (10 µM) | inactive: 0 | inactive: 0 | inactive: 0 | inactive: 0 | inactive: 0 | inactive: 0 | inactive: 0 | inactive: 0 | inactive: 0 | inactive: 0 |
| N#Cc1cc(N2CCC(C(=O)N3N=CC[C@H]3c3cc(F)cc(F)c3)CC2)ncn1 (10 µM) | inactive: 0 | inactive: 0 | inactive: 0 | inactive: 0 | inactive: 0 | inactive: 0 | inactive: 0 | inactive: 0 | inactive: 0 | inactive: 0 |
| N#Cc1cc(-c2ccnc(Nc3ccc(N4CCOCC4)cc3)n2)ccc1OC1CCOCC1 (10 µM) | inactive: 0 | inactive: 0 | inactive: 0 | inactive: 0 | inactive: 0 | inactive: 0 | inactive: 0 | inactive: 0 | inactive: 0 | inactive: 0 |
| COc1ccc(CCNCc2ccc(OCc3ccc(Cl)nc3)c(OC)c2)cc1OC [SBE13 (Hydrochloride)] (10 µM) | inactive: 0 | inactive: 0 | inactive: 0 | inactive: 0 | inactive: 0 | inactive: 0 | inactive: 0 | inactive: 0 | inactive: 0 | inactive: 0 |
| CN1CCC(Nc2nc(Nc3ccc(Oc4ccccc4)cc3)c3c(=O)[nH]cc(Br)c3n2)CC1 (2.5 µM) | inactive: 0 | inactive: 0 | inactive: 0 | inactive: 0 | inactive: 0 | inactive: 0 | inactive: 0 | active: 1 | inactive: 0 | inactive: 0 |
| Cc1ccc(Nc2cc(N[C@@H]3CCCC[C@@H]3N)nnc2C(N)=O)nc1C (2 µM) | inactive: 0 | inactive: 0 | inactive: 0 | inactive: 0 | inactive: 0 | inactive: 0 | inactive: 0 | inactive: 0 | inactive: 0 | inactive: 0 |
| Fc1ccc(Cl)cc1-c1nc(Nc2ccncc2)c2nccnc2n1 (10 µM) | inactive: 0 | inactive: 0 | inactive: 0 | inactive: 0 | inactive: 0 | inactive: 0 | inactive: 0 | inactive: 0 | inactive: 0 | inactive: 0 |
| CN1C(=O)[C@@H](NC(=O)c2cc(Cc3ccccc3)on2)COc2ccccc21 (10 µM) | inactive: 0 | inactive: 0 | inactive: 0 | inactive: 0 | inactive: 0 | inactive: 0 | inactive: 0 | inactive: 0 | inactive: 0 | inactive: 0 |
| CO/N=C1/C(c2c(O)[nH]c3cc(Cl)c(Cl)cc23)=Nc2ccccc21 (10 µM) | inactive: 0 | inactive: 0 | inactive: 0 | inactive: 0 | inactive: 0 | inactive: 0 | inactive: 0 | inactive: 0 | inactive: 0 | inactive: 0 |
| COc1cc2nnc(C(N)=O)c(Nc3ccc(C)cc3F)c2cc1N1CCN(CCO)CC1 (2.5 µM) | inactive: 0 | inactive: 0 | inactive: 0 | inactive: 0 | inactive: 0 | inactive: 0 | inactive: 0 | inactive: 0 | inactive: 0 | inactive: 0 |
| C=CC(=O)Nc1cc(Nc2nccc(-c3cn(C)c4ccccc34)n2)c(OCC(F)(F)F)nc1N(C)CCNC [AST5902  (trimesylate)] (2.5 µM) | inactive: 0 | inactive: 0 | inactive: 0 | inactive: 0 | inactive: 0 | inactive: 0 | inactive: 0 | inactive: 0 | inactive: 0 | inactive: 0 |
| C[C@@H](NC(=O)c1ncnc(N)c1Cl)c1ncc(C(=O)Nc2cc(C(F)(F)F)c(Cl)cn2)s1 (2.5 µM) | inactive: 0 | inactive: 0 | inactive: 0 | inactive: 0 | inactive: 0 | inactive: 0 | inactive: 0 | inactive: 0 | inactive: 0 | inactive: 0 |
| COc1cccc(-c2cc(=O)c3ccccc3o2)c1N (10 µM) | inactive: 0 | inactive: 0 | inactive: 0 | inactive: 0 | inactive: 0 | inactive: 0 | inactive: 0 | inactive: 0 | inactive: 0 | inactive: 0 |
| O=c1cc(N2CCOCC2)oc2c(-c3cccc4c3sc3ccccc34)cccc12 (10 µM) | inactive: 0 | inactive: 0 | inactive: 0 | inactive: 0 | inactive: 0 | inactive: 0 | inactive: 0 | inactive: 0 | inactive: 0 | inactive: 0 |
| CC(C)n1c(CO)nc2c(F)cc(-c3nc(Nc4ccc(CN5CCNCC5)cn4)ncc3F)cc21 (10 µM) | inactive: 0 | active: 1 | inactive: 0 | inactive: 0 | inactive: 0 | inactive: 0 | inactive: 0 | inactive: 0 | inactive: 0 | inactive: 0 |

2 entries from above, as tab-separated lines:
SMILES	kinase-Nluc reporter destabilization hit call [1]	kinase-Nluc reporter destabilization hit call [2]	kinase-Nluc reporter destabilization hit call [3]	kinase-Nluc reporter destabilization hit call [4]	kinase-Nluc reporter destabilization hit call [5]	kinase-Nluc reporter destabilization hit call [6]	kinase-Nluc reporter destabilization hit call [7]	kinase-Nluc reporter destabilization hit call [8]	kinase-Nluc reporter destabilization hit call [9]	kinase-Nluc reporter destabilization hit call [10]
CO/N=C1/C(c2c(O)[nH]c3cc(Cl)c(Cl)cc23)=Nc2ccccc21 (10 µM)	inactive: 0	inactive: 0	inactive: 0	inactive: 0	inactive: 0	inactive: 0	inactive: 0	inactive: 0	inactive: 0	inactive: 0
O=c1cc(N2CCOCC2)oc2c(-c3cccc4c3sc3ccccc34)cccc12 (10 µM)	inactive: 0	inactive: 0	inactive: 0	inactive: 0	inactive: 0	inactive: 0	inactive: 0	inactive: 0	inactive: 0	inactive: 0
